Measurements taken from patent publication US20240325353A1, “COMPOUND FOR TREATMENT OF COGNITIVE DISORDERS” (Syndesi Therapeutics SA, priority 2021, published 2024).
This continues a long series; more values of the same kind are listed elsewhere.

System: brain activity (BOLD signal)
Assay: pharmaco-MRI (BOLD) neuroimaging study in conscious rats
Type: in vivo, rat
Settings: 20-30 min post injection
Protocol: Test Substance, Reference Substance(s), and Vehicle: the compound of example 1 test substance for dose-dependent change in BOLD signal was provided by Syndesi along with the formula for the vehicle.
Subjects: Forty-eight male Sprague Dawley rats weighing ca 275-300 g were obtained from Charles River Laboratories (Wilmington, MA, USA). Rat were maintained on a 12:12 hour light:dark cycle with a lights on at 0700 hours and allowed access to food and water ad libitum. All rats were acquired and cared for in accordance with the guidelines published in the Guide for the Care and Use of Laboratory Animals (National Institutes of Health Publications No. 85-23, Revised 1985) and adhered to the National Institutes of Health and the American Association for Laboratory Animal Science guidelines.
Acclimation: To reduce the stress associated with head restraint, rats were acclimated to the restraining system (head holder and body tube) one week prior to their actual imaging session. The design of the restraining system (Animal Imaging Research, Holden MA, USA) included a padded head support obviating the need for ear bars helping to reduce animal discomfort while minimizing motion artifact. These acclimation sessions were run each day for 4-5 consecutive days. Rats were briefly anesthetized with 2-3% isoflurane while being secured into the head holder. The forepaws were secured with tape. When fully conscious, the imaging system is placed into a black opaque box “mock scanner” for 30 min with a tape-recording of the MRI pulse sequence to simulate the bore of the magnet and the imaging protocol. A significant decline in respiration, heart rate, motor movements, and plasma corticosterone has been measured when the first and last acclimation periods are compared (King et al., 2005). The reduction in autonomic and somatic measures of arousal and stress improve the signal resolution and quality of the images.
Image Acquisition: Animals were scanned at 300 MHz using a quadrature transmit/receive volume coil built into the rat head holder and restraining system for awake animal imaging (Animal Imaging Research, Holden, MA, USA). The design of the coil provided complete coverage of the brain from olfactory bulbs to brain stem with excellent B1 field homogeneity. Experiments were conducted using a Bruker Biospec 7.0 T/20-cm USR horizontal magnet (Bruker, Billerica, MA, USA) and a 20-G/cm magnetic field gradient insert (ID=12 cm) capable of a 120-μs rise time. At the beginning of each imaging session, a high-resolution anatomical data set was collected using the RARE pulse sequence [22 slice; 1.0 mm; field of view (FOV) 3.0 cm; matrix size 256×256; repetition time (TR) 2.5 s; echo time (TE) 12 ms; NEX 2; 3 min acquisition time]. Functional images were acquired using a multi-slice half-Fourier acquisition single-shot turbo spin echo (HASTE) pulse sequence. Bruker Paravision automatically finds the basic frequency, shims, power requirements for 90° and 180° pulses and sets the receiver gain. A single scanning session acquired 22 slices, 1.0 mm thick, every 6.0 s (TR), using an effective TE of 48 ms, FOV 3.0 cm, matrix size 96×96, NEX 1, and repeated 450 times for a total scanning time of 45 min. The in-plane pixel resolution was 312 μm2.
Data Processing: Data are coregistered to a mean functional image using SPM8's coregistrational code with the following parameters: Quality: 0.97, Smoothing: 0.35 mm, Separation: 0.5 mm. Gaussian smoothing was performed with a FWHM of 0.8 mm. Images were aligned and registered to the 3D rat brain atlas, segmented and labeled with 171 discrete anatomical regions. The alignment process was facilitated by an interactive graphic user interface. The registration process involved translation, rotation and scaling independently and in all three dimensions. Matrices that transformed each subject's anatomy were used to embed each slice within the atlas. […]

## O=C1C[C@H](c2cc(F)c(F)c(F)c2)CN1Cn1ncnc1Cl [compound of example 1, (4R)-1-[(5-chloro-1H-1,2,4-triazol-1-yl)methyl]-4-(3,4,5-trifluorophenyl)pyrrolidin-2-one]
Parvicellular reticular n., 1.0 mg/kg i.p.
  median number of positive voxels (positive BOLD volume of activation): 4
Periolivary nucleus, 0.1 mg/kg i.p.
  median number of positive voxels (positive BOLD volume of activation): 3
Periolivary nucleus, 0.3 mg/kg i.p.
  median number of positive voxels (positive BOLD volume of activation): 12
Periolivary nucleus, 1.0 mg/kg i.p.
  median number of positive voxels (positive BOLD volume of activation): 0
Posterior hypothalamic area, 0.1 mg/kg i.p.
  median number of positive voxels (positive BOLD volume of activation): 19
Posterior hypothalamic area, 0.3 mg/kg i.p.
  median number of positive voxels (positive BOLD volume of activation): 15
Posterior hypothalamic area, 1.0 mg/kg i.p.
  median number of positive voxels (positive BOLD volume of activation): 0
Posterior thalamic nucleus, 0.1 mg/kg i.p.
  median number of positive voxels (positive BOLD volume of activation): 11
Posterior thalamic nucleus, 0.3 mg/kg i.p.
  median number of positive voxels (positive BOLD volume of activation): 0
Posterior thalamic nucleus, 1.0 mg/kg i.p.
  median number of positive voxels (positive BOLD volume of activation): 0
Premammillary nucleus, 0.1 mg/kg i.p.
  median number of positive voxels (positive BOLD volume of activation): 1
Premammillary nucleus, 0.3 mg/kg i.p.
  median number of positive voxels (positive BOLD volume of activation): 3
Premammillary nucleus, 1.0 mg/kg i.p.
  median number of positive voxels (positive BOLD volume of activation): 0
Prerubral field, 0.1 mg/kg i.p.
  median number of positive voxels (positive BOLD volume of activation): 1
Prerubral field, 0.3 mg/kg i.p.
  median number of positive voxels (positive BOLD volume of activation): 0
Prerubral field, 1.0 mg/kg i.p.
  median number of positive voxels (positive BOLD volume of activation): 0
Primary motor ctx, 0.1 mg/kg i.p.
  median number of positive voxels (positive BOLD volume of activation): 119
Primary somatosensory ctx barrel field, 0.1 mg/kg i.p.
  median number of positive voxels (positive BOLD volume of activation): 29
Primary somatosensory ctx barrel field, 0.3 mg/kg i.p.
  median number of positive voxels (positive BOLD volume of activation): 7
Primary somatosensory ctx barrel field, 1.0 mg/kg i.p.
  median number of positive voxels (positive BOLD volume of activation): 0
Primary somatosensory ctx forelimb, 0.1 mg/kg i.p.
  median number of positive voxels (positive BOLD volume of activation): 39
Primary somatosensory ctx forelimb, 0.3 mg/kg i.p.
  median number of positive voxels (positive BOLD volume of activation): 9
Primary somatosensory ctx forelimb, 1.0 mg/kg i.p.
  median number of positive voxels (positive BOLD volume of activation): 3
Primary somatosensory ctx jaw, 0.1 mg/kg i.p.
  median number of positive voxels (positive BOLD volume of activation): 64
Primary somatosensory ctx jaw, 0.3 mg/kg i.p.
  median number of positive voxels (positive BOLD volume of activation): 20
Primary somatosensory ctx jaw, 1.0 mg/kg i.p.
  median number of positive voxels (positive BOLD volume of activation): 6
Primary somatosensory ctx shoulder, 0.1 mg/kg i.p.
  median number of positive voxels (positive BOLD volume of activation): 2
Primary somatosensory ctx shoulder, 0.3 mg/kg i.p.
  median number of positive voxels (positive BOLD volume of activation): 0
Primary somatosensory ctx shoulder, 1.0 mg/kg i.p.
  median number of positive voxels (positive BOLD volume of activation): 0
Primary somatosensory ctx trunk, 0.1 mg/kg i.p.
  median number of positive voxels (positive BOLD volume of activation): 2
Primary somatosensory ctx upper lip, 0.1 mg/kg i.p.
  median number of positive voxels (positive BOLD volume of activation): 39
Primary somatosensory ctx upper lip, 0.3 mg/kg i.p.
  median number of positive voxels (positive BOLD volume of activation): 5
Primary somatosensory ctx upper lip, 1.0 mg/kg i.p.
  median number of positive voxels (positive BOLD volume of activation): 0
Reuniens nucleus, 0.1 mg/kg i.p.
  median number of positive voxels (positive BOLD volume of activation): 14
Reuniens nucleus, 0.3 mg/kg i.p.
  median number of positive voxels (positive BOLD volume of activation): 11
Reuniens nucleus, 1.0 mg/kg i.p.
  median number of positive voxels (positive BOLD volume of activation): 0
Root of trigeminal nerve, 0.1 mg/kg i.p.
  median number of positive voxels (positive BOLD volume of activation): 22
Root of trigeminal nerve, 0.3 mg/kg i.p.
  median number of positive voxels (positive BOLD volume of activation): 29
Root of trigeminal nerve, 1.0 mg/kg i.p.
  median number of positive voxels (positive BOLD volume of activation): 6
Secondary somatosensory ctx, 0.1 mg/kg i.p.
  median number of positive voxels (positive BOLD volume of activation): 16
Substantia innominata, 0.1 mg/kg i.p.
  median number of positive voxels (positive BOLD volume of activation): 0
Substantia innominata, 0.3 mg/kg i.p.
  median number of positive voxels (positive BOLD volume of activation): 0
Substantia innominata, 1.0 mg/kg i.p.
  median number of positive voxels (positive BOLD volume of activation): 0
Subthalamic nucleus, 0.1 mg/kg i.p.
  median number of positive voxels (positive BOLD volume of activation): 0
Supraoptic nucleus, 0.1 mg/kg i.p.
  median number of positive voxels (positive BOLD volume of activation): 0
Supraoptic nucleus, 0.3 mg/kg i.p.
  median number of positive voxels (positive BOLD volume of activation): 2
Supraoptic nucleus, 1.0 mg/kg i.p.
  median number of positive voxels (positive BOLD volume of activation): 0
Temporal ctx, 0.1 mg/kg i.p.
  median number of positive voxels (positive BOLD volume of activation): 5
Temporal ctx, 0.3 mg/kg i.p.
  median number of positive voxels (positive BOLD volume of activation): 1
Temporal ctx, 1.0 mg/kg i.p.
  median number of positive voxels (positive BOLD volume of activation): 0
Ventral pallidum, 0.1 mg/kg i.p.
  median number of positive voxels (positive BOLD volume of activation): 9
Ventral pallidum, 0.3 mg/kg i.p.
  median number of positive voxels (positive BOLD volume of activation): 3
Ventral pallidum, 1.0 mg/kg i.p.
  median number of positive voxels (positive BOLD volume of activation): 0
Ventromedial thalamic nucleus, 0.1 mg/kg i.p.
  median number of positive voxels (positive BOLD volume of activation): 10
Ventromedial thalamic nucleus, 0.3 mg/kg i.p.
  median number of positive voxels (positive BOLD volume of activation): 2
Ventromedial thalamic nucleus, 1.0 mg/kg i.p.
  median number of positive voxels (positive BOLD volume of activation): 0
Visual 2 ctx, 0.1 mg/kg i.p.
  median number of positive voxels (positive BOLD volume of activation): 51
Visual 2 ctx, 0.3 mg/kg i.p.
  median number of positive voxels (positive BOLD volume of activation): 21
Visual 2 ctx, 1.0 mg/kg i.p.
  median number of positive voxels (positive BOLD volume of activation): 0
